In PubChem BioAssay AID1671190 (National Center for Advancing Translational Sciences (NCATS), 2021):
About 6,100 (1.1%) of roughly 580,000 compounds were called active. Inconclusive means that the source gave no clear call. Such entries were picked first, then a sample of the others. Calls follow the shape of the dose curve; as a rule, active = well fitted inhibition curve with a large enough effect; inconclusive = small, poorly fitted or top-dose-only effect, or another doubt; inactive = no such curve, though single readings can be large or run the other way. A potency beside an inconclusive call is a rough fit, not a confirmed value.

Protein sequences, listed by entry. Tags and fused reporters are not part of them. Lines headed by an entry give the natural chain unless they say otherwise; changes in a name come on top.
UniProt P18054: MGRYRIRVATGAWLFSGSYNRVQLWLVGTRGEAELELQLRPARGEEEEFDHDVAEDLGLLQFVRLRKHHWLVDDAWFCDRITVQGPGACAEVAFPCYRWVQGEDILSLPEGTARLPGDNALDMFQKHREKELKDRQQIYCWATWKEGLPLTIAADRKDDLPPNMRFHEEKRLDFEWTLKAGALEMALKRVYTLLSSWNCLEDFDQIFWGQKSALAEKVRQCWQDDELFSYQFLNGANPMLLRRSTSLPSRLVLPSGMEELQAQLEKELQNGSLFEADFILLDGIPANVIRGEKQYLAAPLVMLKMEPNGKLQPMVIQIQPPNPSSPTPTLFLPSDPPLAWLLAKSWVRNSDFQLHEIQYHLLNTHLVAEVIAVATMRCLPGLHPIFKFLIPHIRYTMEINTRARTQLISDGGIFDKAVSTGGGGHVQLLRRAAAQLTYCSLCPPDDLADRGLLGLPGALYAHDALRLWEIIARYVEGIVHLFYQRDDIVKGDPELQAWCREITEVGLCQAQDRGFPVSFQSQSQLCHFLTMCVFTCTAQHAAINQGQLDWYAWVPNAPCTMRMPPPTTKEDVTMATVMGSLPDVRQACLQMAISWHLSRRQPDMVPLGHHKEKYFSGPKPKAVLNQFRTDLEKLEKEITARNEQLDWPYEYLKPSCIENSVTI

What follows are molecules tested against Polyunsaturated fatty acid lipoxygenase ALOX12 (Homo sapiens) (UniProt P18054) (assay: Primary qHTS assay for inhibitors of human arachidonate 12S-lipoxygenase (ALOX12): Round 2). Details: purified 12hLO, xylenol orange hydroperoxide absorbance; series mostly up to 108 µM.
Method in brief: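 Purified human 12hLO at 150 nM in 25 mM Hepes, 0.01% Triton X-100, pH 7.0, preincubated 15 min at room temperature with compound. Reaction started with 40 uM arachidonic acid, 30 min at room temperature. Hydroperoxide measured by Fe-xylenol orange, 573/405 nm absorbance ratio.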
Potency is read from the fitted curve at half-maximal effect.

Compound | Potency
Cc1ccc(S(=O)(=O)N2CN(CC3CCCO3)c3nc4ccccc4nc32)cc1 (centres undefined) | inconclusive: 39.8 µM [inhibitor, partial curve, poor fit]
CC(CC(=O)N1CCN(c2cccc(Cl)c2)CC1)S(=O)(=O)c1ccc2c(c1)NC(=O)CO2 (centres undefined) | inactive
COc1ccc(S(=O)(=O)Nc2cc(C(=O)NCCCN3CCOCC3)ccc2N2CCOCC2)cc1 | inconclusive: 39.8 µM [inhibitor, partial curve, poor fit]
Cc1cc(C(=O)Nc2ccc3c(c2)CCC3)c(C)s1 | inconclusive: 50.1 µM [inhibitor, partial curve, poor fit]
CCOC(=O)C1=C(C)N=c2s/c(=C/c3cccc([N+](=O)[O-])c3O)c(=O)n2C1c1cc(OC)c(OC)c(OC)c1 (centres undefined) | inconclusive: 10 µM [inhibitor, partial curve, poor fit]
NS(=O)(=O)c1cccc(NC(=O)c2cc(-c3cccs3)nc3ccccc23)c1 | inconclusive: 35.5 µM [inhibitor, partial curve, poor fit]
Cc1cc(C)cc(OCCCCn2cncn2)c1 | inconclusive: 0.316 µM [inhibitor, full curve, poor fit]
CCCCn1nc(C(=O)N2CCN(c3ncccn3)CC2)c2ccccc2c1=O | inconclusive: 0.0891 µM [inhibitor, full curve, poor fit]
O=C(OCC1(COC(=O)c2ccc(F)cc2)CCCC(COC(=O)c2ccc(F)cc2)(COC(=O)c2ccc(F)cc2)C1=O)c1ccc(F)cc1 | inconclusive: 89.1 µM [inhibitor, partial curve, poor fit]
Cc1ccc(-n2ncc(C(=O)N3CCN(c4ccc(Cl)cc4)CC3)c2C2CCN(C(=O)OC(C)(C)C)CC2)c(C)c1 | inactive
CC(C)COc1ccc(CSCCNC(=S)Nc2ccccc2)cc1 | inconclusive: 35.5 µM [inhibitor, partial curve, poor fit]
Cc1nc(C)c(C(=O)C2=C(O)C(=O)N(CCN(C)C)C2c2cccs2)s1 (centres undefined) | inconclusive: 1.41 µM [inhibitor, full curve, poor fit]
Cc1c(C(=O)N2CCOCC2)c(S(=O)(=O)Nc2ccc(Br)cc2F)c(C)n1C | inconclusive: 63.1 µM [inhibitor, partial curve, poor fit]
CCN1CCN(S(=O)(=O)c2ccc(Cl)c(C(=O)Nc3ccccc3N3CCCCC3)c2)CC1 | inconclusive: 7.08 µM [inhibitor, full curve, poor fit]
CC(O)CNc1nc2c(c(=O)n(Cc3ccc(Cl)cc3)c(=O)n2C)n1C (centres undefined) | inactive
COc1ccc(NC(=O)C(C)SCCO)cc1 (centres undefined) | inconclusive: 112 µM [inhibitor, single point]
c1ccc(-c2ccc(C3=Nn4c(Cn5nnc6ccccc65)nnc4SC3)cc2)cc1 | inactive
CCOC(=O)c1cc2c(=Cc3ccc(N(C)C)cc3)c3ccccc3n2[n+]1C | inconclusive: 44.7 µM [inhibitor, partial curve, poor fit]
Cc1cccc(CC(=O)N2CC(=O)Nc3ccc(Br)cc3C2c2ccc(F)cc2)c1 (centres undefined) | inconclusive: 15.8 µM [inhibitor, partial curve, poor fit]
Cc1nnsc1C(=O)NC1CCCc2c1cnn2-c1cc(F)cc(F)c1 (centres undefined) | inactive

Compound | Potency
Cc1csc2nc(O)c(C(=O)NCCC3=CCCCC3)c(=O)n12 | inconclusive: 6.31 µM [inhibitor, full curve, poor fit]
CN(C)CCCC1Sc2ccccc2Sc2ccccc21 (centres undefined) | inconclusive: 3.98 µM [inhibitor, full curve, poor fit]
C=CC[C@H](CC(=O)N(CCO)Cc1ccccc1)C(=O)NC[C@H](OC(=O)[C@@H](CC=C)Cc1ccc(F)cc1)c1ccccc1 | inconclusive: 50.1 µM [inhibitor, partial curve, poor fit]
CCC(=O)c1ccc(/C=C/c2nc3ccccc3n2C)o1 | inactive
Cc1cc2c(cc1S(=O)(=O)Nc1cccc(C#N)c1)OCC(=O)N2 | inconclusive: 112 µM [inhibitor, partial curve, poor fit]
O=C(Cn1ncc2c3ccccc3n(Cc3ccccc3F)c2c1=O)NCc1ccccc1Cl | inactive
O=C(O)c1nccnc1C(=O)NCCc1c[nH]c2ccccc12 | inconclusive: 31.6 µM [inhibitor, partial curve, poor fit]
N#CC(C(=O)OC1CCCCC1)c1nc2ccccc2nc1N1CCOCC1 (centres undefined) | inactive
COc1cccc2sc(N(CCN(C)C)C(=O)c3ccc(S(=O)(=O)N4CCCC4)cc3)nc12 | inconclusive: 14.1 µM [inhibitor, full curve, poor fit]
CCN(CC)c1ccc(/C=N/NS(=O)(=O)c2ccc(Cl)cc2)cc1 | active: 31.6 µM
Cc1cc2oc(=O)cc(CN3CCC(C)CC3)c2cc1C | inconclusive: 39.8 µM [inhibitor, partial curve, poor fit]
Cc1ccc(Sc2ccc(NC(=O)c3cccc(C)c3C)cc2)c(C)c1 | inconclusive: 15.8 µM [inhibitor, partial curve]
COc1ccc(-n2nc(C(=O)N3CCCCC3C)c3c4ccccc4n(C)c3c2=O)cc1Cl (centres undefined) | inactive
CC(=O)Nc1ccc(Nc2cc(C)nc3c(-c4ccccc4)cnn23)cc1 | inactive
COc1ccc2c(c1)CC/C(=C\c1ccc(SC)cc1)C2=O | inactive
CN(CCC#N)S(=O)(=O)c1ccc(Cl)cc1F | inconclusive: 70.8 µM [inhibitor, partial curve, poor fit]
CCN1CCN(C/C(C)=C/c2ccccc2)CC1 | inconclusive: 10 µM [inhibitor, full curve]
COc1cc(NC(=O)CSc2nc3ncnc(N)c3[nH]2)c(C(=O)O)cc1OC | inconclusive: 3.98 µM [inhibitor, full curve, poor fit]
COc1cccc(C(=O)Nc2ccccc2C(=O)OCc2cc(=O)n3c4c(sc3n2)CCCC4)c1 | inconclusive: 56.2 µM [inhibitor, partial curve, poor fit]

Retrieved by compound from the entries so far:
Compound | Potency
COc1cc(NC(=O)CSc2nc3ncnc(N)c3[nH]2)c(C(=O)O)cc1OC | inconclusive: 3.98 µM [inhibitor, full curve, poor fit]
O=C(O)c1nccnc1C(=O)NCCc1c[nH]c2ccccc12 | inconclusive: 31.6 µM [inhibitor, partial curve, poor fit]
